Laboratory results reported in US9809627B2 (Wisconsin Alumni Research Foundation, priority 2014, dated 2017).

Test: general procedure: Fmoc solid-phase peptide synthesis; Fmoc-PAL-PEG-PS (Applied Biosystems); PyBOP (on-resin cyclization)
Conditions: cyclisation step

| Substance | outcome | cyclisation yield (estimated from HPLC peak area) |
| --- | --- | --- |
| SKVVT^DPGRYTIAALLSPYSYSQ | cyclization failed, and a side product with mass 53 amu higher than the starting peptide was produced | – |
| SKVVT^DPPRYTIAALLSPYSYSQ [CG3] (chain 1 SKVVTPPRYTIAALLSPYSYSQ; chain 2 SKVVTPPRYTIAALLSPYSYSQ; cyclic, DPro-Pro template; (5)..(5) D-amino acid) | – | about 40% |
